At least one structure is not confirmed: it was looked up by name or label, or the drawing left a doubt.
Tested on: retinal pigment epithelium (RPE) cells
Assay: Example 19: proliferation of primary retinal pigment epithelium cultures
Format: cell-based, human
Conditions: single-agent treatment (FIG. 19): dexamethasone 10^−11 to 10^−6M, ATRA 10^−12 to 10^−6M
Procedure: Primary cultures of human retinal pigment epithelium (RPE) were established according to the method described by Campochiaro et al. in Invest. Opthal & Vis. Sci. 32:65 (1991). 5×10^4 cells were plated in 16-mm wells of 24-well multiwell plates in DMEM (Gibco) containing 5% FBS. […] Cells were fed with fresh media containing the appropriate concentrations of these compounds every two days for a total of five days of treatment. Cells were removed from the plates by gentle digestion with trypsin and the number of cells was counted with an electronic cell counter.
AGN 193109 was tested for its ability to potentiate the anti-proliferative effect of 13-cis retinoic acid (13-cis RA) in primary RPE cultures using conditions and techniques to measure RPE cell proliferation described above. […] More particularly, 13-cis RA is useful in the treatment of several disease states, including acne (Peck et al. N. Engl. J. Med. 300:329 (1977); Jones et al. Br. J. Dermatol. 108:333 (1980)), and squamous cell carcinoma of the skin and cervix in combination treatment with interferon 2α (Lippman et al. J. Natl. Cancer Inst. 84:241 (1992); Moore et al. Seminars in Hematology 31:31 (1994)).
We next tested the ability of AGN 193109 to potentiate the activities of other nuclear receptor hormones in primary RPE cell cultures. […]

In the case of `C[C@@H]1C[C@H]2[C@@H]3CCC4=CC(=O)C=C[C@]4(C)[C@@]3(F)[C@@H](O)C[C@]2(C)[C@@]1(O)C(=O)CO` [dexamethasone], the RPE cell proliferation is reported as “substantially unable to inhibit RPE cell proliferation”.
